Among the data in article PMC12268348 are binding values, retold here.

Sequences of proteins named here, by UniProt entry; tags and fusion partners are left off.
UniProt Q9JJ50: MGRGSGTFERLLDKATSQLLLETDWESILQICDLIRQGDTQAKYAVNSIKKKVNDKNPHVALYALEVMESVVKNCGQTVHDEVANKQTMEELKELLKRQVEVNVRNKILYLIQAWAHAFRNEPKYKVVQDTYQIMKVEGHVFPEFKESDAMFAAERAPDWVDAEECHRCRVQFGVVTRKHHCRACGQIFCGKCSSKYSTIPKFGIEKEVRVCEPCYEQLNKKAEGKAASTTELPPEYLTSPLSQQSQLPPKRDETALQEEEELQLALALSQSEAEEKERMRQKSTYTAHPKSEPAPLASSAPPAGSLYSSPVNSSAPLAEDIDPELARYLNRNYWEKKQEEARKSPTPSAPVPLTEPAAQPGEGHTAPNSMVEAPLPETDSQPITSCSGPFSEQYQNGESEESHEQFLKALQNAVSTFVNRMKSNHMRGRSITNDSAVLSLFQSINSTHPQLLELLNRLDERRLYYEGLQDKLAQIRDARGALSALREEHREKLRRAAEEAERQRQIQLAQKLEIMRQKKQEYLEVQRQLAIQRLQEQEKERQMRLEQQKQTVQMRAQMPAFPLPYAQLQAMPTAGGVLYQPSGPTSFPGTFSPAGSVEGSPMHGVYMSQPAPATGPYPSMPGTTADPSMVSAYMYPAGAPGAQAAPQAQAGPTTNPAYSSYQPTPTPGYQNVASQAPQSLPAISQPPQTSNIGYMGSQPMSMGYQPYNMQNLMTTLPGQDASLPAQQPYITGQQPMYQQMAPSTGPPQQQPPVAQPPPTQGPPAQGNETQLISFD

Results are given in words; binding and its absence hold for the method and conditions named. Binding seen in cells or lysates may run through a third protein. Some entries that bind do so weakly or less than the wild type.

Assay in all cases: co-IP; endogenous proteins in lysates of rat primary FLSs (OE/KD PPARγ-treated); IP/Co-IP lysis buffer; antibody with Protein A/G magnetic beads, 4 °C overnight; washed thrice with lysis buffer; Western blot; IgG control
The target in experiment [1] is T1, PPARγ coactivator PGC-1α (rat (endogenous in primary FLSs of SD rats)) (UniProt Q9QYK2).
T1 sequence: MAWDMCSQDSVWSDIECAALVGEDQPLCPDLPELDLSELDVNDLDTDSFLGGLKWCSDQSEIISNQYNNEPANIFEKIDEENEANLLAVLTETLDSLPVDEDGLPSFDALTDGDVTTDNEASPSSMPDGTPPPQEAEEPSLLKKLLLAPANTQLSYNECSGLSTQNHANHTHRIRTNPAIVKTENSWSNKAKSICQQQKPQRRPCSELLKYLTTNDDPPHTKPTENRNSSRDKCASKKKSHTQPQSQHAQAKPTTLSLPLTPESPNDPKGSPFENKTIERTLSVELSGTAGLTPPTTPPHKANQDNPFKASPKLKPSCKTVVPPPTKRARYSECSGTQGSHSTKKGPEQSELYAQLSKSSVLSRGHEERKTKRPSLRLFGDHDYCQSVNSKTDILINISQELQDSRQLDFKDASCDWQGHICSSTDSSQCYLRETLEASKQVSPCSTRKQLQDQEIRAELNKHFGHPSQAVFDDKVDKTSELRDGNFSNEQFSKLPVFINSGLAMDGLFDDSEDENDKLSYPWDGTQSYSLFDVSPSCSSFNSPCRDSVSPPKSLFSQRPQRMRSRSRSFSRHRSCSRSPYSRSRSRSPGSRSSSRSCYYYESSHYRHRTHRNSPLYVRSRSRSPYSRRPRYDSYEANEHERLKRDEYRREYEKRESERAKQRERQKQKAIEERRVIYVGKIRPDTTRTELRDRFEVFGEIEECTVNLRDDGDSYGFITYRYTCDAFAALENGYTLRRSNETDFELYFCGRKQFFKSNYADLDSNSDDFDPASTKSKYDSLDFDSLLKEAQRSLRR

For experiment [2], the target named is T2, CHMP7 (ESCRT-III subunit) (rat (endogenous in primary FLSs of SD rats)) (UniProt D4A7H9).
T2 sequence: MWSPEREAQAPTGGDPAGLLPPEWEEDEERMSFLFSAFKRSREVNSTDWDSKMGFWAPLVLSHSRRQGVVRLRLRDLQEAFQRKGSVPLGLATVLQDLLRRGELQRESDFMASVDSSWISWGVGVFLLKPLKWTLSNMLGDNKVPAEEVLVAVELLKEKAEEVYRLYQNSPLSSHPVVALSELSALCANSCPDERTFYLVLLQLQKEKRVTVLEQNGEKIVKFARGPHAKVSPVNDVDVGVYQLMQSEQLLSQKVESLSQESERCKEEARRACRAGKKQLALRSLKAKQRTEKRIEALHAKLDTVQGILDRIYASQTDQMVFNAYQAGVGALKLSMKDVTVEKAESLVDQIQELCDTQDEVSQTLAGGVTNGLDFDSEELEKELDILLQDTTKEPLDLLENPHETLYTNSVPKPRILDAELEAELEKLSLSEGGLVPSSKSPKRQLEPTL

Experiment [3] has as its target Hrs (ESCRT-0 subunit), hepatocyte growth factor-regulated tyrosine kinase substrate (rat (endogenous in primary FLSs of SD rats)) (UniProt Q9JJ50).
In experiment [4] the target is T3, TSG101 (ESCRT-I subunit) (rat (endogenous in primary FLSs of SD rats)) (UniProt Q6IRE4).
T3 sequence: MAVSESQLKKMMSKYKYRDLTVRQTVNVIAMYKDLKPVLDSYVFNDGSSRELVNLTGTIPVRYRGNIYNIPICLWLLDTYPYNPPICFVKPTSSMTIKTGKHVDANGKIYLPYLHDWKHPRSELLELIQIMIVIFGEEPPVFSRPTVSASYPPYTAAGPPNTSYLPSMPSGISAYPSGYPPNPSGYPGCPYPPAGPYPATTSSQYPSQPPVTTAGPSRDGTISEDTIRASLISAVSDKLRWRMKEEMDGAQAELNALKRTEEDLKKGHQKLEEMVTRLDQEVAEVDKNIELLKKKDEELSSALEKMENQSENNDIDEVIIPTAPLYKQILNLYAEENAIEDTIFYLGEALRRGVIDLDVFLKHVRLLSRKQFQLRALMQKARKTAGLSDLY

B1: TSG101 (ESCRT-I subunit) (protein, UniProt Q6IRE4 1-391)
chain: MAVSESQLKKMMSKYKYRDLTVRQTVNVIAMYKDLKPVLDSYVFNDGSSRELVNLTGTIPVRYRGNIYNIPICLWLLDTYPYNPPICFVKPTSSMTIKTGKHVDANGKIYLPYLHDWKHPRSELLELIQIMIVIFGEEPPVFSRPTVSASYPPYTAAGPPNTSYLPSMPSGISAYPSGYPPNPSGYPGCPYPPAGPYPATTSSQYPSQPPVTTAGPSRDGTISEDTIRASLISAVSDKLRWRMKEEMDGAQAELNALKRTEEDLKKGHQKLEEMVTRLDQEVAEVDKNIELLKKKDEELSSALEKMENQSENNDIDEVIIPTAPLYKQILNLYAEENAIEDTIFYLGEALRRGVIDLDVFLKHVRLLSRKQFQLRALMQKARKTAGLSDLY
As for B1, the binding result in experiment [1] was “binds”.

B2: Annexin A1 (ANXA1) in FLSs (protein, UniProt P07150 1-346)
chain: MAMVSEFLKQACYIEKQEQEYVQAVKSYKGGPGSAVSPYPSFNPSSDVAALHKAIMVKGVDEATIIDILTKRTNAQRQQIKAAYLQETGKPLDETLKKALTGHLEEVVLAMLKTPAQFDADELRAAMKGLGTDEDTLIEILTTRSNQQIREITRVYREELKRDLAKDITSDTSGDFRNALLALAKGDRCEDMSVNQDLADTDARALYEAGERRKGTDVNVFNTILTTRSYPHLRKVFQNYRKYSQHDMNKALDLELKGDIEKCLTTIVKCATSTPAFFAEKLYEAMKGAGTRHKTLIRIMVSRSEIDMNEIKVFYQKKYGIPLCQAILDETKGDYEKILVALCGGN
B2: the binding entry in experiment [1] was “binds”.

B3: PPARγ coactivator PGC-1α (protein, UniProt Q9QYK2 1-796)
chain: MAWDMCSQDSVWSDIECAALVGEDQPLCPDLPELDLSELDVNDLDTDSFLGGLKWCSDQSEIISNQYNNEPANIFEKIDEENEANLLAVLTETLDSLPVDEDGLPSFDALTDGDVTTDNEASPSSMPDGTPPPQEAEEPSLLKKLLLAPANTQLSYNECSGLSTQNHANHTHRIRTNPAIVKTENSWSNKAKSICQQQKPQRRPCSELLKYLTTNDDPPHTKPTENRNSSRDKCASKKKSHTQPQSQHAQAKPTTLSLPLTPESPNDPKGSPFENKTIERTLSVELSGTAGLTPPTTPPHKANQDNPFKASPKLKPSCKTVVPPPTKRARYSECSGTQGSHSTKKGPEQSELYAQLSKSSVLSRGHEERKTKRPSLRLFGDHDYCQSVNSKTDILINISQELQDSRQLDFKDASCDWQGHICSSTDSSQCYLRETLEASKQVSPCSTRKQLQDQEIRAELNKHFGHPSQAVFDDKVDKTSELRDGNFSNEQFSKLPVFINSGLAMDGLFDDSEDENDKLSYPWDGTQSYSLFDVSPSCSSFNSPCRDSVSPPKSLFSQRPQRMRSRSRSFSRHRSCSRSPYSRSRSRSPGSRSSSRSCYYYESSHYRHRTHRNSPLYVRSRSRSPYSRRPRYDSYEANEHERLKRDEYRREYEKRESERAKQRERQKQKAIEERRVIYVGKIRPDTTRTELRDRFEVFGEIEECTVNLRDDGDSYGFITYRYTCDAFAALENGYTLRRSNETDFELYFCGRKQFFKSNYADLDSNSDDFDPASTKSKYDSLDFDSLLKEAQRSLRR
Consider B3, for which the binding result in experiment [2], in experiment [3] and in experiment [4] was “binds” each time.

B4: CHMP7 (ESCRT-III subunit) (protein, UniProt D4A7H9 1-450)
chain: MWSPEREAQAPTGGDPAGLLPPEWEEDEERMSFLFSAFKRSREVNSTDWDSKMGFWAPLVLSHSRRQGVVRLRLRDLQEAFQRKGSVPLGLATVLQDLLRRGELQRESDFMASVDSSWISWGVGVFLLKPLKWTLSNMLGDNKVPAEEVLVAVELLKEKAEEVYRLYQNSPLSSHPVVALSELSALCANSCPDERTFYLVLLQLQKEKRVTVLEQNGEKIVKFARGPHAKVSPVNDVDVGVYQLMQSEQLLSQKVESLSQESERCKEEARRACRAGKKQLALRSLKAKQRTEKRIEALHAKLDTVQGILDRIYASQTDQMVFNAYQAGVGALKLSMKDVTVEKAESLVDQIQELCDTQDEVSQTLAGGVTNGLDFDSEELEKELDILLQDTTKEPLDLLENPHETLYTNSVPKPRILDAELEAELEKLSLSEGGLVPSSKSPKRQLEPTL
In the case of B4, the binding result in experiment [1] is given as “binds”.
